{"source": "PubChem BioAssay AID1053208 (Peter MacCallum Cancer Centre, 2014)", "aim": "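Find knock-downs that sensitise mouse osteosarcoma cells to doxorubicin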 (primary screen)", "cells": "mouse osteosarcoma cells, early-passage culture from an engineered mouse model of fibroblastic bone tumour", "reagents": "siRNA pool against mouse genes, 40 nM", "duration": "about 120 h (48 h before drug, then 72 h with drug)", "challenge": "doxorubicin 100 nM for 72 h, roughly 30-40% inhibitory dose", "measured": "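Viability read as ATP luminescence after 72 h of 100 nM doxorubicin or none, duplicate wells averaged, scaled to non-targeting siRNA, then expressed as robust z-scores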", "reading the numbers": "viability z-score with doxorubicin: higher = more viable cells under doxorubicin; viability z-score without drug: higher = more viable cells with knock-down alone", "active means": "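a pool counts as active when its viability z-score with doxorubicin is -2 or below and its z-score without drug lies between -2 and 2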", "note": "Shown is an unselected part of about 17,000 reagents. 788 of them (4.7%) were called active. 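Calls rest on z-score classes alone; an extra cut-off of viability at most 70% of control was not applied to them.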 Entries without a mark were called inactive. A reagent listed more than once was tested more than once; the source does not tell the runs apart. Not all columns of the deposit are shown."}
{"gene symbol": "Ces1c", "combined z-score class": "no change with or without drug", "viability z-score with doxorubicin": 0.67, "viability z-score without drug": 1.01}
{"gene symbol": "H2aj", "combined z-score class": "no change with or without drug", "viability z-score with doxorubicin": 1.57, "viability z-score without drug": 0.51}
{"gene symbol": "Rpe", "combined z-score class": "high cell count with doxorubicin only", "viability z-score with doxorubicin": 2.02, "viability z-score without drug": 0.17}
{"gene symbol": "Tmem19", "combined z-score class": "high cell count with doxorubicin only", "viability z-score with doxorubicin": 2.59, "viability z-score without drug": 1.69}
{"gene symbol": "Oprd1", "combined z-score class": "no change with or without drug", "viability z-score with doxorubicin": -0.67, "viability z-score without drug": -0.67}
{"gene symbol": "Tlx3", "combined z-score class": "no change with or without drug", "viability z-score with doxorubicin": 1.46, "viability z-score without drug": 0.17}
{"gene symbol": "Or9i1", "combined z-score class": "no change with or without drug", "viability z-score with doxorubicin": -0.22, "viability z-score without drug": -0.51}
{"gene symbol": "Arih2", "combined z-score class": "no change with or without drug", "viability z-score with doxorubicin": 0.45, "viability z-score without drug": -0.84}
{"gene symbol": "Prap1", "combined z-score class": "no change with or without drug", "viability z-score with doxorubicin": 0, "viability z-score without drug": -0.51}
{"gene symbol": "Dhrs4", "combined z-score class": "no change with or without drug", "viability z-score with doxorubicin": 0.45, "viability z-score without drug": 0.84}
{"gene symbol": "Rarres1", "combined z-score class": "no change with or without drug", "viability z-score with doxorubicin": 1.12, "viability z-score without drug": 0.34}
{"gene symbol": "Lrrc8c", "combined z-score class": "high cell count without drug only", "viability z-score with doxorubicin": -0.22, "viability z-score without drug": 2.02}
{"gene symbol": "Gnb2", "combined z-score class": "no change with or without drug", "viability z-score with doxorubicin": 0.34, "viability z-score without drug": -0.17}
{"gene symbol": "Prps1l1", "combined z-score class": "low cell count with doxorubicin only (active)", "viability z-score with doxorubicin": -4.05, "viability z-score without drug": 0.51}
{"gene symbol": "Prps1l1", "combined z-score class": "no change with or without drug", "viability z-score with doxorubicin": -0.56, "viability z-score without drug": -0.51}
{"gene symbol": "Mup3", "combined z-score class": "no change with or without drug", "viability z-score with doxorubicin": 0, "viability z-score without drug": -0.51}
{"gene symbol": "Or8b40", "combined z-score class": "no change with or without drug", "viability z-score with doxorubicin": -0.56, "viability z-score without drug": 0.17}
{"gene symbol": "Nek8", "combined z-score class": "no change with or without drug", "viability z-score with doxorubicin": 1.24, "viability z-score without drug": 1.18}
{"gene symbol": "Myh14", "combined z-score class": "no change with or without drug", "viability z-score with doxorubicin": -0.79, "viability z-score without drug": 1.18}
{"gene symbol": "Olfr900", "combined z-score class": "high cell count without drug only", "viability z-score with doxorubicin": -0.22, "viability z-score without drug": 2.19}
{"gene symbol": "Map3k6", "combined z-score class": "no change with or without drug", "viability z-score with doxorubicin": -0.22, "viability z-score without drug": 0.51}
{"gene symbol": "Oxnad1", "combined z-score class": "no change with or without drug", "viability z-score with doxorubicin": 0, "viability z-score without drug": -0.17}
{"gene symbol": "Ptgs1", "combined z-score class": "no change with or without drug", "viability z-score with doxorubicin": 0.79, "viability z-score without drug": 0.84}
{"gene symbol": "Siglecf", "combined z-score class": "no change with or without drug", "viability z-score with doxorubicin": -0.67, "viability z-score without drug": 0.34}
{"gene symbol": "Cbfb", "combined z-score class": "no change with or without drug", "viability z-score with doxorubicin": 0.9, "viability z-score without drug": 0.17}
{"gene symbol": "Gjc2", "combined z-score class": "no change with or without drug", "viability z-score with doxorubicin": 0.79, "viability z-score without drug": -0.51}
{"gene symbol": "Ccl7", "combined z-score class": "no change with or without drug", "viability z-score with doxorubicin": 1.12, "viability z-score without drug": 0.51}
{"gene symbol": "Exosc2", "combined z-score class": "no change with or without drug", "viability z-score with doxorubicin": 1.01, "viability z-score without drug": 1.18}

Entries above with an active call:
{"gene symbol": "Prps1l1", "combined z-score class": "low cell count with doxorubicin only (active)", "viability z-score with doxorubicin": -4.05, "viability z-score without drug": 0.51}
